Measurements published in paper PMC3384617.
No constants are given. Whether binding was seen depends on the method and setting. Binding seen in cells or lysates may run through a third protein. Some results given as binding are weak or reduced against the parent protein; the word gives no strength.

Sequences of proteins named here, by UniProt entry; tags and fusion partners are left off.
UniProt O95600: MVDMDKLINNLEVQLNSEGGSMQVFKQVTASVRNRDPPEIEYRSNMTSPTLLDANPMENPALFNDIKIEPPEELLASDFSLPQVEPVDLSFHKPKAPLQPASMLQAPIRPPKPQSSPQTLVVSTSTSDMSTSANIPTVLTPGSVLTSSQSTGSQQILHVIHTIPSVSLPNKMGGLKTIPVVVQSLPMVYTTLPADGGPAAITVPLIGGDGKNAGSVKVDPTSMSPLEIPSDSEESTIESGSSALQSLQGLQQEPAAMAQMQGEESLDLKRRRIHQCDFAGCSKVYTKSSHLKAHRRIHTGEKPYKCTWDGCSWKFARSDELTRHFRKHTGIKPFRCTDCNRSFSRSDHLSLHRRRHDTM
UniProt Q9NQB0: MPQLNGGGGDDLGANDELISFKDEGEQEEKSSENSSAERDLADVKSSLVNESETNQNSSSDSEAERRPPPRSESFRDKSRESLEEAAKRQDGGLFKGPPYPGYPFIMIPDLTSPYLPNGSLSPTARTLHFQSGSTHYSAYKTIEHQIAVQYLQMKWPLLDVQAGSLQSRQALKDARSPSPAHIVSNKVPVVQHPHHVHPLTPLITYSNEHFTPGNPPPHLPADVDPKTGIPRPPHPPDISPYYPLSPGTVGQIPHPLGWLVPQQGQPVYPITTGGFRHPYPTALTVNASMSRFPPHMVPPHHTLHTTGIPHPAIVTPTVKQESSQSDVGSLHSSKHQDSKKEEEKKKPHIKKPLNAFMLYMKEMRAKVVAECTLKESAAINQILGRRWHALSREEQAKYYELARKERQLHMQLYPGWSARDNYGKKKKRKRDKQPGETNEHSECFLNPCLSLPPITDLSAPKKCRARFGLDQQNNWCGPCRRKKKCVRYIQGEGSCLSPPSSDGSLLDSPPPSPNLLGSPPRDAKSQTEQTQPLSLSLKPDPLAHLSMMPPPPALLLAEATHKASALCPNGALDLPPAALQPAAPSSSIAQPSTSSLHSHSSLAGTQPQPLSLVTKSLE
UniProt P35222: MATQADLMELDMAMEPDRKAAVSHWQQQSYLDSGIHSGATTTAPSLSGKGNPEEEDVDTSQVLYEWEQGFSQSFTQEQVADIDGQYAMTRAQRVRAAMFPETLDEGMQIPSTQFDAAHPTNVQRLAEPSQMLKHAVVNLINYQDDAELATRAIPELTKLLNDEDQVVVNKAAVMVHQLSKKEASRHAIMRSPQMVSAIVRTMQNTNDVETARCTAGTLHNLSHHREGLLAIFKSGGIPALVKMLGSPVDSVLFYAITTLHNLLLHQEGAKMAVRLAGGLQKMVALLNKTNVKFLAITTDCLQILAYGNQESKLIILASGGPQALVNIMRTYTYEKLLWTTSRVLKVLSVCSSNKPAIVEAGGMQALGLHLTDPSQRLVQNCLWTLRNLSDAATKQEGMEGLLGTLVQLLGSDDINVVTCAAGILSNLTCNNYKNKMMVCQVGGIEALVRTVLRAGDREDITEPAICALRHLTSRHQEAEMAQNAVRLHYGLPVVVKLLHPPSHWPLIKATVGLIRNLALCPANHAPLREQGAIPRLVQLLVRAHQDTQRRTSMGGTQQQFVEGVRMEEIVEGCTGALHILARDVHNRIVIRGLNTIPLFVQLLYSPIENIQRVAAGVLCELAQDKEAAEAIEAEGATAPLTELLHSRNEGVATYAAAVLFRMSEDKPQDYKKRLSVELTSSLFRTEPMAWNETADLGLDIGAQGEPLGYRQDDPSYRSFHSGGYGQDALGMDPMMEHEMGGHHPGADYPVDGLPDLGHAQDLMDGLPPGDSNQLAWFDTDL

Target: Krüppel-like factor 8 (KLF8) (human (endogenous in HepG2)) (UniProt O95600)
Test: co-IP; KLF8 immunoprecipitated (rIgG as negative control antibody) from lysates of HepG2 cells treated with Wnt3a conditioned medium; antibody on Protein A-agarose, 4°C overnight, washed with radioimmunoprecipitation assay lysis buffer (150 mM NaCl, 0.5% NP-40); blots for β-catenin, TCF4 and KLF8

| binding | Substance |
| --- | --- |
| binds | T-cell factor 4 (TCF4) (from UniProt Q9NQB0 1-619) |
| binds | β-catenin (from UniProt P35222 1-781) |
